In article PMC2565678:
No constants are given. Whether binding was seen depends on the method and setting. In cells and extracts the contact can be indirect. Some entries that bind do so weakly or less than the wild type.

Chains of the proteins cited; added tags and fusions are not shown.
UniProt Q13009: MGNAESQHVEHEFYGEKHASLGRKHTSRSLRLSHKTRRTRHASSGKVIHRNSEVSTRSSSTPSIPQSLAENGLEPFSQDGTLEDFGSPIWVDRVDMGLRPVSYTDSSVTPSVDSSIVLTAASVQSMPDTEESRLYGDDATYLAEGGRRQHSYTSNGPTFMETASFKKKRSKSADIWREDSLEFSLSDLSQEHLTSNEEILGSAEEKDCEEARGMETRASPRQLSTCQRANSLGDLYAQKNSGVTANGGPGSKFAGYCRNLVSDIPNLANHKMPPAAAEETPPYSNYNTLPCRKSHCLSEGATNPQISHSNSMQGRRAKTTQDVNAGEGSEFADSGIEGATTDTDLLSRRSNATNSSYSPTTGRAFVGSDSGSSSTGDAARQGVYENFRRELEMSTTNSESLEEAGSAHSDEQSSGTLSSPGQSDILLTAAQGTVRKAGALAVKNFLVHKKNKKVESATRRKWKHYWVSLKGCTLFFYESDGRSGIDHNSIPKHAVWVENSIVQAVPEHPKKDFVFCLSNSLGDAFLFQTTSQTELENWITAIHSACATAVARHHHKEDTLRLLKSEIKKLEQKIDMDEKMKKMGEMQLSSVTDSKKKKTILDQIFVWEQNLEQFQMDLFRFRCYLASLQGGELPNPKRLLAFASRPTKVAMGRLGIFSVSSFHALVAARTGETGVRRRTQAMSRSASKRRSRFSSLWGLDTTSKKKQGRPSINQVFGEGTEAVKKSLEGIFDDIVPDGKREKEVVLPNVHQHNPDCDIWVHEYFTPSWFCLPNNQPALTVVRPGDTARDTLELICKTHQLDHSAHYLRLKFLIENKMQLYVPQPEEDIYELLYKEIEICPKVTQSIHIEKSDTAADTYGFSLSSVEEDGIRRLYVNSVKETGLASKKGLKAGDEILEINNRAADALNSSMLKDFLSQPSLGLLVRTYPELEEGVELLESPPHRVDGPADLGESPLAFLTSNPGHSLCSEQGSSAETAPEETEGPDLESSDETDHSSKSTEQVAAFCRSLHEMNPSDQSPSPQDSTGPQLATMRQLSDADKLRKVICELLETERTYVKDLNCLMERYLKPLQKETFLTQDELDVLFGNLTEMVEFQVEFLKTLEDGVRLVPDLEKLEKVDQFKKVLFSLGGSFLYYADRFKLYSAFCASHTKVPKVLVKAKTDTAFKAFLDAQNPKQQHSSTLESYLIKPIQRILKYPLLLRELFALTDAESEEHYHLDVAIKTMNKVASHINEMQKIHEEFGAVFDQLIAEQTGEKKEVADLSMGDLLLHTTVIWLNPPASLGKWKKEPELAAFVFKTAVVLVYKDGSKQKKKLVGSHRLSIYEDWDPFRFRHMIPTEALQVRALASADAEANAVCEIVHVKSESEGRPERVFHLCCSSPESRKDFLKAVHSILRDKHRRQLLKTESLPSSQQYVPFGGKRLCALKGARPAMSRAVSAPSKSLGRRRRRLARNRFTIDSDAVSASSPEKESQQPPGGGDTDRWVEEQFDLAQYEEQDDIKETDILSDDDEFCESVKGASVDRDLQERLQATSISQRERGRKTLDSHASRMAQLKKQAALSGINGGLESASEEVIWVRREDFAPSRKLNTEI
UniProt Q9NQB0: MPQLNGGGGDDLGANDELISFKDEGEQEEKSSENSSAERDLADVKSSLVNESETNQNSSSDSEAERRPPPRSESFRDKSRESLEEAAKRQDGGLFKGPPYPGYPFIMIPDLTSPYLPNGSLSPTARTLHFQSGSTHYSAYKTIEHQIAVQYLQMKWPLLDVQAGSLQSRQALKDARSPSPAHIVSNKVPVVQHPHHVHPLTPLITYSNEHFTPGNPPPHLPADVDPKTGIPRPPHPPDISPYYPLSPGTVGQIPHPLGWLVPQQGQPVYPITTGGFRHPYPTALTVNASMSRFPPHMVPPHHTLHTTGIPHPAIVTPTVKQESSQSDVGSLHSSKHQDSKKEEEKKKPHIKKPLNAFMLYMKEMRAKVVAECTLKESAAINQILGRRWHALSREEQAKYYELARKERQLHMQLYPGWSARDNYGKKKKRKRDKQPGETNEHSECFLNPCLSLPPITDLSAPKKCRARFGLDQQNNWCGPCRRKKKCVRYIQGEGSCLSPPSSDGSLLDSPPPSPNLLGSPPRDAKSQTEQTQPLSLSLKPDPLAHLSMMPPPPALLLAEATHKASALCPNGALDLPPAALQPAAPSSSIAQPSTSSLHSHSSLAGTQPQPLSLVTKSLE
UniProt P35222: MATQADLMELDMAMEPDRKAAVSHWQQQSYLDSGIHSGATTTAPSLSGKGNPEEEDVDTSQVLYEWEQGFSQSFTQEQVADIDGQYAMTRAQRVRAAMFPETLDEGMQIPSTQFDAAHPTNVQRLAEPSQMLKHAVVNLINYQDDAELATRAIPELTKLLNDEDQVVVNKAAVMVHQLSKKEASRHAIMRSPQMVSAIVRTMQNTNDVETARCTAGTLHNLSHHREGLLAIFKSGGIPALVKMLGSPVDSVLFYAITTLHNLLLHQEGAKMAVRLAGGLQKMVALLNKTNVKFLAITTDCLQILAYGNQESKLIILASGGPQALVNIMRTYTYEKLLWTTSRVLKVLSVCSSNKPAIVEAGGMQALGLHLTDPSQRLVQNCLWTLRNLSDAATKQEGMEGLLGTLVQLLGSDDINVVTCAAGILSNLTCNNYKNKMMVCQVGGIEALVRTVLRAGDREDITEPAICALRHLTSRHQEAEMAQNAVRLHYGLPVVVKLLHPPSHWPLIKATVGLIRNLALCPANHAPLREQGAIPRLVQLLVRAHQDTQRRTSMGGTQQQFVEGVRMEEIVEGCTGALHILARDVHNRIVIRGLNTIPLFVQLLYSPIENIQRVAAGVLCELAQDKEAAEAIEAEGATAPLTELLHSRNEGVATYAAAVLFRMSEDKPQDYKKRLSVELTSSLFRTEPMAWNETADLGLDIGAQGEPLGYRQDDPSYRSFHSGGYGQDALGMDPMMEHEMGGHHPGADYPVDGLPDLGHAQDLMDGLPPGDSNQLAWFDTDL

What was measured:
Assay in all cases: co-IP; whole cell lysates (500 μg) of 293T cells treated with L-CM or Wnt3a-CM for 18 hours, endogenous proteins; IP with 3 μg Tiam1, β-catenin or TCF-4 antibody, immunoblot
[1] = target: endogenous Tiam1 of 293T cells (human (endogenous in 293T)) (UniProt Q13009)
[2] = target: endogenous TCF-4 of 293T cells (human (endogenous in 293T)) (UniProt Q9NQB0)
[3] = target: endogenous wild-type β-catenin of 293T cells (human (endogenous in 293T)) (UniProt P35222)

| Substance | binding [1] | binding [2] | binding [3] |
| --- | --- | --- | --- |
| endogenous wild-type β-catenin of 293T cells (from UniProt P35222 1-781) | binds |  |  |
| endogenous Tiam1 of 293T cells (from UniProt Q13009 1-1591) |  | binds | binds |
